Experimental data: patent US8409600B2, “Methods for prevention and/or treatment of capsular contracture” (J&E Solutions, LLC, priority 2009, dated 2013)
At least one structure is not confirmed: it was looked up by name or label, or the drawing left a doubt.

Tested on: breast capsular contracture
Assay: Clinical cases: topical treatment of breast capsular contracture (Baker grade)
Format: in vivo, human
Conditions: Patient #1, recurred capsules after 410 implants
Description: The methods of the present invention for prevention of capsular contracture comprise topical application of the composition using the following steps: • Wash and dry the affected area (that is, the skin surrounding the implant or the skin over the capsular contracture) prior to use. • Apply the composition daily (use sparingly) with vigorous massage to affected area. If necessary, exert compression or pressure when massaging to break up existing capsule. Enhanced absorption is obtained with application of the composition following a hot shower. Occlusive dressing (hydrogel), or tight clothing (sports bras), will also enhance the result. Continued daily use will yield optimal results. […] Optimal results are best maintained with daily continued application. One particularly useful embodiment of the invention involves the use of the topical compositions for the treatment/prevention of capsular contracture in breast surgery (e.g., breast implants). There are four grades of breast capsular contracture—Baker grades I through IV. The Baker grading is as follows: • Grade I—the breast is normally soft and looks natural • Grade II—the breast is a little firm but looks normal • Grade III—the breast is firm and looks abnormal • Grade IV—the breast is hard, painful, and looks abnormal. • of developed or is at risk of developing capsular contracture a topical composition. Clinical Cases Patient #1

CC(C)(O)c1ccccc1CC[C@@H](SCC1(CC(=O)O)CC1)c1cccc(/C=C/c2ccc3ccc(Cl)cc3n2)c1 [Singulair, Montelukast sodium]
response of capsular contracture to treatment: without improvement
